In test [1] the target is GST-fused SIN1-RBD (not stated (the printed accession is a human entry)) (UniProt Q9BPZ7). In words: pull-down; purified GST-fused RBDs on glutathione agarose beads, incubated 1 h with cell lysates with overexpressed FLAG-tagged GTPases; wash buffer 50 mM Tris-HCl, 150 mM NaCl, 10 mM MgCl2; immunoblot; only the target purified.
For test [2], the target named is SIN1-RBD (not stated (the printed accession is a human entry)) (UniProt Q9BPZ7). The test can be described thus: fluorescence polarisation; SIN1-RBD premixed and pre-incubated with 2x excess SIN1-PH, then titrated to HRAS•mGppNHp; both purified. (Fluorescence polarisation rises when a labelled molecule tumbles more slowly, as on binding a larger partner.)
Test [3] concerns the target CDC42 (not stated (the printed accession is a human entry)) (UniProt P60953). In words: fluorescence polarisation; increasing amounts of SIN1 protein titrated to 1 µM mGppNHp-bound GTPase; 21°C; 30 mM Tris/HCl pH 7.5, 150 mM NaCl, 5 mM MgCl2, 3 mM dithiothreitol; quadratic ligand binding equation; both purified.

The chains behind the UniProt entries cited, without tags or fusion partners. Where a name states a change or a piece, a line headed by the entry shows the natural chain unless it says otherwise. Residues count along the entry.
SIN1-RBD (Q9BPZ7, residues 266-373): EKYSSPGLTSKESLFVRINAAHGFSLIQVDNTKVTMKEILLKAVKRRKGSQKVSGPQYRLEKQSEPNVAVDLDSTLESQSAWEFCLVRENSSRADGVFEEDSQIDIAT
SIN1-PH (Q9BPZ7, residues 373-522): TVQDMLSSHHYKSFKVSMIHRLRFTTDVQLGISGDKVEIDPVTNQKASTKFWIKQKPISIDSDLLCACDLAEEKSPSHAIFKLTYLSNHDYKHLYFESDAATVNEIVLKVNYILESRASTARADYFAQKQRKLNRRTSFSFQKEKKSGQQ
UniProt P60953: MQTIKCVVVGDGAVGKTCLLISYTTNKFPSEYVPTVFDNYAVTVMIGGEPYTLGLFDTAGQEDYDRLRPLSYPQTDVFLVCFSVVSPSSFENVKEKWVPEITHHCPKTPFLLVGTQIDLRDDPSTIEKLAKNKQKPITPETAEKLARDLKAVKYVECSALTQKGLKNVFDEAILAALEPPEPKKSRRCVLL
UniProt Q92963: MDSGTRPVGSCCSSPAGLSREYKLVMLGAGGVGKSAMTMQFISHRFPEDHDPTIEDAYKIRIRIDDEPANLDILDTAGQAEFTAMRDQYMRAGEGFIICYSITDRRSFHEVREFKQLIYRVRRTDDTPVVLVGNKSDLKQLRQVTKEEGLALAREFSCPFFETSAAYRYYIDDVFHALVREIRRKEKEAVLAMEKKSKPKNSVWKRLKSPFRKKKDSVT

Results are given in words; binding and its absence hold for the method and conditions named. For part of these data: In cells and extracts the contact can be indirect. Some results given as binding are weak or reduced against the parent protein; the word gives no strength.

Regarding “RIT1^G30V with FLAG-Tag (from UniProt Q92963 1-219)”, the binding result in test [1] is listed as “binds weakly”.

Consider “SIN1-PH (from UniProt Q9BPZ7 373-522) (domain or fragment)”, for which the binding entry in test [2] is given as “no binding (tested: 2x excess SIN1-PH)”.

Consider “SIN1-RBD (from UniProt Q9BPZ7 266-373) (domain or fragment)”, for which the binding result in test [3] is on record as “no binding”.

The values above are taken from paper PMC9583166.
